Experimental data reported in article PMC7819943, “Rice protein-binding microarrays: a tool to detect cis-acting elements near promoter regions in rice”.
Some of the results follow.

Protein sequences, listed by entry. Tags and fused reporters are not part of them.
UniProt Q0JBA9, entry or part of it: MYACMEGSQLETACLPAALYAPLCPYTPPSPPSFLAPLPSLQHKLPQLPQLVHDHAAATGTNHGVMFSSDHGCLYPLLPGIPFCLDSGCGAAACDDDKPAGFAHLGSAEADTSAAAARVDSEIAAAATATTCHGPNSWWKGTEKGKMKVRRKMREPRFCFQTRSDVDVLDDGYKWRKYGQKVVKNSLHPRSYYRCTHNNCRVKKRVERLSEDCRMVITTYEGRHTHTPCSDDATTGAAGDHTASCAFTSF

Target: OsWRKY34 (Oryza sativa, UniProt Q0JBA9 1-250)
Assay: protein-binding microarray (RPBM); PBS, 2% BSA, 51.3 ng/ul salmon testes DNA, 50 uM zinc acetate, 200 nM TF, 25 C, 1 h; high values mean tight binding
Settings: protein: recombinant; tags: N-terminal polyhistidine and DsRed monomer fusion (pET32a); label: CyDye5-dUTP incorporated in the synthesized complementary strand; 3' TTTTT single-stranded linker to array surface; dsDNA, one strand shown
Method in brief: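 Polyhistidine-tagged DsRed fusions of transcription factors, joined at the N-terminus, were expressed in E. coli BL21-CodonPlus and isolated on Ni–NTA. They were incubated at 200 nM for 1 h at 25 °C on a custom Agilent array, double-stranded and BSA-blocked, in PBS with 2% BSA, salmon testes DNA and 50 µM zinc acetate. The binding signal is per-feature fluorescence intensity (arbitrary units) read on an Axon 4000B scanner after washing.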

Sequence	binding signal
GAGGGCGGAGGAGGTGGTGAGGGAGGAGGTGCGGAGGCTGCGGAGTCACCTAGTGCAG	8320 fluorescence intensity (a.u.)
GTGATGGTGTTTCTCTTTGCAATTCAATTTTGCGTGGCTCCGGAGTCACCTAGTGCAG	10600 fluorescence intensity (a.u.)
ATCGATCATCAACGGCCCATCGAGCACCTCCGGCCGAGCCCGGAGTCACCTAGTGCAG	8350 fluorescence intensity (a.u.)
CTTGATCAACTTGGCTACATCCGTCCCTTATCCAGCTAAACGGAGTCACCTAGTGCAG	10100 fluorescence intensity (a.u.)
GTTGCAGGTTCTTCAGTCCACTTGGGATGGTTCCGGTGGTCGGAGTCACCTAGTGCAG	10700 fluorescence intensity (a.u.)
CACCACGGCTTCCACACAGCCCGCCAAACCGGCATGCACTCGGAGTCACCTAGTGCAG	10400 fluorescence intensity (a.u.)
CCCCTTCGCCGTCGTCTTATGCGCTTCCCACGGGGCCGCACGGAGTCACCTAGTGCAG	9810 fluorescence intensity (a.u.)
AACCGCGACCACCTCTGCTTCTCCCCTTCTCTCTCCTCCCCGGAGTCACCTAGTGCAG	8030 fluorescence intensity (a.u.)
GGGAGCGGGTGGGAGTGGCCGGCGCGGAGGACGACGGCGGCGGAGTCACCTAGTGCAG	8280 fluorescence intensity (a.u.)
AGACTCTTGTTTGCTTCATTCCTATCCAGTTTCATCCAACCGGAGTCACCTAGTGCAG	8530 fluorescence intensity (a.u.)
ATTCCCAGCCGCCTCTCTTCTTGTTAGGGGATCCGAAATCCGGAGTCACCTAGTGCAG	11700 fluorescence intensity (a.u.)
TGTTCTCATTGCCGCCTCCTTTGTTTGCACACACCCCAACCGGAGTCACCTAGTGCAG	13500 fluorescence intensity (a.u.)
CCACCTATCTGGCCTGGCTCACTCTTTCTCCGTTTATTTTCGGAGTCACCTAGTGCAG	13900 fluorescence intensity (a.u.)
CAACCTTCATGACCTGCATAACAGCCTGATTGCTTCTAAACGGAGTCACCTAGTGCAG	13000 fluorescence intensity (a.u.)
TGCTTCTCCTCACCCGTGCTCGCTTGCCTCGCTCTGCGTTCGGAGTCACCTAGTGCAG	8620 fluorescence intensity (a.u.)
CCAAGACCGCACCCGTATAAAGCCGCAGACCTCTCTCTCCCGGAGTCACCTAGTGCAG	10100 fluorescence intensity (a.u.)
GAGTTCTTCAGTTCATCTATTGCTCACCTTAGCAACCATCCGGAGTCACCTAGTGCAG	8450 fluorescence intensity (a.u.)
GCATCCAACCGCCCATGGAAATCCCCGCGCGCCCTCCCAGCGGAGTCACCTAGTGCAG	12000 fluorescence intensity (a.u.)
GGAGAGGAGGCGGAGGTGAAGGGGAAGGGGCAGGGGAGGACGGAGTCACCTAGTGCAG	11400 fluorescence intensity (a.u.)
TCGTCTTCACGCGGACATTGTAGTCCCACTCGAGCTTCTCCGGAGTCACCTAGTGCAG	8060 fluorescence intensity (a.u.)
ATCATCGCTCGCAGTCGCAGCACAAAAACATTTCTCTCGCCGGAGTCACCTAGTGCAG	8920 fluorescence intensity (a.u.)

Sequence	binding signal
CCATCTCCTACACGACTTTTGTTTCATCATCTATTCTCCTCGGAGTCACCTAGTGCAG	15900 fluorescence intensity (a.u.)
AGAGAACCGTCCATTCATCTATTGATCATTGTATCATTCCCGGAGTCACCTAGTGCAG	9140 fluorescence intensity (a.u.)
TGTTAGCTCCTCACCGTCACCGGTGTGCCTCGCGTCGTTCCGGAGTCACCTAGTGCAG	8670 fluorescence intensity (a.u.)
CGCCTGCTCCAGATCCGGTCATCGTCGTCTCGGTCGTCGTCGGAGTCACCTAGTGCAG	8050 fluorescence intensity (a.u.)
CTCACCACAAGGCCACATGTCATCGCTATTTTTTGCCTCGCGGAGTCACCTAGTGCAG	9000 fluorescence intensity (a.u.)
TGGAAAGAGGAGGGCGGGGAGAGGACTGGGGAGGGCGGGGCGGAGTCACCTAGTGCAG	17700 fluorescence intensity (a.u.)
ATCACTGATCTATTTAATTCTGCAGGTACCGCTTCATGCTCGGAGTCACCTAGTGCAG	8630 fluorescence intensity (a.u.)
CTCTCGTTCAAACGTTCGTCTGTTCAAACGTCAACCTTTCCGGAGTCACCTAGTGCAG	10500 fluorescence intensity (a.u.)
TGGCGCGTGGGAGGGTCAGCCTAGGGCGTCGGAGGGGCGGCGGAGTCACCTAGTGCAG	13400 fluorescence intensity (a.u.)
ACAAAGGGTCAAACGTTGGTAAAAAGTCAACGGTGTCGTTCGGAGTCACCTAGTGCAG	14200 fluorescence intensity (a.u.)
TTGACTTTTGATTATTCTTCTCGTTGCAAATATAAACTGCCGGAGTCACCTAGTGCAG	9080 fluorescence intensity (a.u.)
GCCGACTCCGCCGATATCTCCGCCGCCTGCGCAACCACACCGGAGTCACCTAGTGCAG	9290 fluorescence intensity (a.u.)
GTTTTCTAGTTTTTTTTATCTTGTCCGTCCTCACATCACCCGGAGTCACCTAGTGCAG	9560 fluorescence intensity (a.u.)
CGCCATGGTTATATTTGTGGTATCCTTTTCTATGTTTAAGCGGAGTCACCTAGTGCAG	10200 fluorescence intensity (a.u.)
TAATGGATTTTGAGTTTTTATTTGCAACATTTGATTACTCCGGAGTCACCTAGTGCAG	9540 fluorescence intensity (a.u.)
CTACTGCCAATCCCGGCCCACGGCCCAATCCAGCCGCGCCCGGAGTCACCTAGTGCAG	9510 fluorescence intensity (a.u.)
ACCTCTATTTTATTTTAAGTGCAGTTGTGGTTTCCATATCCGGAGTCACCTAGTGCAG	8350 fluorescence intensity (a.u.)
CTTCTCTTGCTTTCCTCCACTTTTGTTGCTCTCAGCTTTTCGGAGTCACCTAGTGCAG	10800 fluorescence intensity (a.u.)
TGGTGGTGGGGAGGGTATTTATACCGGCTGACGAGGCGTGCGGAGTCACCTAGTGCAG	9080 fluorescence intensity (a.u.)
GAATGAACTCCACTTTGGGCCATATCCTATCATTAGGACACGGAGTCACCTAGTGCAG	10300 fluorescence intensity (a.u.)
TTTTTTATTTTTGCAACTTGGGCTCTCTTATCTTTATTTCCGGAGTCACCTAGTGCAG	14400 fluorescence intensity (a.u.)

12 entries from above, bar-delimited:
Sequence | binding signal
CCATCTCCTACACGACTTTTGTTTCATCATCTATTCTCCTCGGAGTCACCTAGTGCAG | 15900 fluorescence intensity (a.u.)
AGAGAACCGTCCATTCATCTATTGATCATTGTATCATTCCCGGAGTCACCTAGTGCAG | 9140 fluorescence intensity (a.u.)
TGGAAAGAGGAGGGCGGGGAGAGGACTGGGGAGGGCGGGGCGGAGTCACCTAGTGCAG | 17700 fluorescence intensity (a.u.)
ATCACTGATCTATTTAATTCTGCAGGTACCGCTTCATGCTCGGAGTCACCTAGTGCAG | 8630 fluorescence intensity (a.u.)
CTCTCGTTCAAACGTTCGTCTGTTCAAACGTCAACCTTTCCGGAGTCACCTAGTGCAG | 10500 fluorescence intensity (a.u.)
GCCGACTCCGCCGATATCTCCGCCGCCTGCGCAACCACACCGGAGTCACCTAGTGCAG | 9290 fluorescence intensity (a.u.)
CGCCATGGTTATATTTGTGGTATCCTTTTCTATGTTTAAGCGGAGTCACCTAGTGCAG | 10200 fluorescence intensity (a.u.)
TAATGGATTTTGAGTTTTTATTTGCAACATTTGATTACTCCGGAGTCACCTAGTGCAG | 9540 fluorescence intensity (a.u.)
CTTCTCTTGCTTTCCTCCACTTTTGTTGCTCTCAGCTTTTCGGAGTCACCTAGTGCAG | 10800 fluorescence intensity (a.u.)
TGGTGGTGGGGAGGGTATTTATACCGGCTGACGAGGCGTGCGGAGTCACCTAGTGCAG | 9080 fluorescence intensity (a.u.)
GAATGAACTCCACTTTGGGCCATATCCTATCATTAGGACACGGAGTCACCTAGTGCAG | 10300 fluorescence intensity (a.u.)
TTTTTTATTTTTGCAACTTGGGCTCTCTTATCTTTATTTCCGGAGTCACCTAGTGCAG | 14400 fluorescence intensity (a.u.)
